This is one part of the list.
Experiments:
Test in all cases: log2 fold change, soluble protein after heating vs DMSO (PISA); higher = thermal stabilisation; K562 cells, 10 uM, 30 min; active = over 0.2 and 3.5 SD of the protein, either way, in both replicates (recomputed)
[1] = compound: CC[C@@H]1C(=O)N(C)c2cnc(Nc3ccc(C(=O)NC4CCN(C)CC4)cc3OC)nc2N1C1CCCC1
Summary of the method: (§1)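 Aliquots of K562 cells (2×10^6 cells/mL) treated with 10 μM compound for 30 min were heated for 3 min over 48°C-58°C. After pooling and extraction in PBS with 0.5% NP-40 at 4°C, soluble protein from a 21,000xg, 90 min spin was quantified by TMTpro 16plex LC-MS/MS with channel sums equalised. Thermal stability is expressed against control samples, from duplicates, as a log2 fold change.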

Protein sequences, listed by entry. Tags and fused reporters are not part of them. Lines headed by an entry give the natural chain unless they say otherwise; changes in a name come on top.
UniProt Q99471, whole entry, looked up: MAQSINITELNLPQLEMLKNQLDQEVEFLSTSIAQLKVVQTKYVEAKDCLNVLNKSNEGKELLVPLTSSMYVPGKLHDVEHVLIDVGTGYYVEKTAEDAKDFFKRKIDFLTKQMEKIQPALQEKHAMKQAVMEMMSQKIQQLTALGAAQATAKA
UniProt P12273: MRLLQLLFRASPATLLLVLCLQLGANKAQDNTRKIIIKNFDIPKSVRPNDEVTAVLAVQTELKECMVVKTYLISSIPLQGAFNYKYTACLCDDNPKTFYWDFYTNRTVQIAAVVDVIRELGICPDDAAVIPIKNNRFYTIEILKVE
UniProt Q16877: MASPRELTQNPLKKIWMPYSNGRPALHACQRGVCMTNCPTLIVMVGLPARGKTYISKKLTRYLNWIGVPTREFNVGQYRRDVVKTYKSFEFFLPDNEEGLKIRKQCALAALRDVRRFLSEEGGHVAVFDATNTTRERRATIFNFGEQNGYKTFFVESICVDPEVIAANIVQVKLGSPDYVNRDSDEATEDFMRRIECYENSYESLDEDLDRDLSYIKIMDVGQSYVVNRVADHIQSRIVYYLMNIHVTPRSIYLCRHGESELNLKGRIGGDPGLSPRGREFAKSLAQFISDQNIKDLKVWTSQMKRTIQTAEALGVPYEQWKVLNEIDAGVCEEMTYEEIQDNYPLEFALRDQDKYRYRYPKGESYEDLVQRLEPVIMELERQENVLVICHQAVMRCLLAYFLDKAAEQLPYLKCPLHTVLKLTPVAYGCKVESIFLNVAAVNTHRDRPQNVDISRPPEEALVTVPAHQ
UniProt P00558: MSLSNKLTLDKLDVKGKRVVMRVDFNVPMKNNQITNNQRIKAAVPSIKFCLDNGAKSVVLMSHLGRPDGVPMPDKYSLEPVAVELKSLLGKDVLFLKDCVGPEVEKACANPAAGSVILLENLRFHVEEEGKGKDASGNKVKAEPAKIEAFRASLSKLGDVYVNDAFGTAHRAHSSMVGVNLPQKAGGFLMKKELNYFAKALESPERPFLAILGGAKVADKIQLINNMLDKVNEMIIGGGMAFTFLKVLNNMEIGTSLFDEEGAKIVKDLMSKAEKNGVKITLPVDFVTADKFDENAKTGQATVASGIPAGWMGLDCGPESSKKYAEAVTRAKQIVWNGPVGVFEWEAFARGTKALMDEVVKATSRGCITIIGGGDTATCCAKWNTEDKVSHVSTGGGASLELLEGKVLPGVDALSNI
UniProt Q96G03: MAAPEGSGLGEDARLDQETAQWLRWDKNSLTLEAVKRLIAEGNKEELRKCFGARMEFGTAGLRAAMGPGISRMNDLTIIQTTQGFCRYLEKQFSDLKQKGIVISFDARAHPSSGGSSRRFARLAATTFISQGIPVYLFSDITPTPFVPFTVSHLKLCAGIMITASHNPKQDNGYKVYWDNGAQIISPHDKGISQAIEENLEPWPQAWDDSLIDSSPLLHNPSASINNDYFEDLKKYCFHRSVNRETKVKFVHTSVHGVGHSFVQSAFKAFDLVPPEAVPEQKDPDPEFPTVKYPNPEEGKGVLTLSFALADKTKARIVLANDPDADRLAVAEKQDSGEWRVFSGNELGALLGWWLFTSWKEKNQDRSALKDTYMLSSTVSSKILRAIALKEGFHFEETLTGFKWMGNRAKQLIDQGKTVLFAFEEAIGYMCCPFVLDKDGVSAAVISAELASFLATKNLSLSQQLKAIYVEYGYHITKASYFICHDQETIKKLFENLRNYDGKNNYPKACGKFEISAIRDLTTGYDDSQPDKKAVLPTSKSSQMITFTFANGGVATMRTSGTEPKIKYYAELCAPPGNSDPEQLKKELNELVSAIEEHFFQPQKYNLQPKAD
UniProt Q7Z7B1: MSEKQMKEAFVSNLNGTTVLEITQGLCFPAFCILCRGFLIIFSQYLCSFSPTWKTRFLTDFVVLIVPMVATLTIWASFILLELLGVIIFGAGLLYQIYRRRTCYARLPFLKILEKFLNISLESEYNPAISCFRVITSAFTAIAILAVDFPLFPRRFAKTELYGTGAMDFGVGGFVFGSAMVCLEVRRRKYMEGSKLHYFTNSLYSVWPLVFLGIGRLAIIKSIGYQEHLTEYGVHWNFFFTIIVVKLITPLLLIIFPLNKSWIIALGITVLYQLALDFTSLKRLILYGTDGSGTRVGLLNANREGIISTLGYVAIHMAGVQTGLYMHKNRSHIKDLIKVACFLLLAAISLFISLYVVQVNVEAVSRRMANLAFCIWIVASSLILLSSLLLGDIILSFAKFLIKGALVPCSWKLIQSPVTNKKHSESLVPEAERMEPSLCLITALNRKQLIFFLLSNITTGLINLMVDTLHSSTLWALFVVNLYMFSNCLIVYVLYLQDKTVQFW
UniProt Q9Y237, whole entry, looked up: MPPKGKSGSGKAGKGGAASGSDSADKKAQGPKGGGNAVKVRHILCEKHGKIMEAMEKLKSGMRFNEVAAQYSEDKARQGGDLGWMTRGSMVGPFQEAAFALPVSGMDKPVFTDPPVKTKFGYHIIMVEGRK
UniProt O00459, whole entry, looked up: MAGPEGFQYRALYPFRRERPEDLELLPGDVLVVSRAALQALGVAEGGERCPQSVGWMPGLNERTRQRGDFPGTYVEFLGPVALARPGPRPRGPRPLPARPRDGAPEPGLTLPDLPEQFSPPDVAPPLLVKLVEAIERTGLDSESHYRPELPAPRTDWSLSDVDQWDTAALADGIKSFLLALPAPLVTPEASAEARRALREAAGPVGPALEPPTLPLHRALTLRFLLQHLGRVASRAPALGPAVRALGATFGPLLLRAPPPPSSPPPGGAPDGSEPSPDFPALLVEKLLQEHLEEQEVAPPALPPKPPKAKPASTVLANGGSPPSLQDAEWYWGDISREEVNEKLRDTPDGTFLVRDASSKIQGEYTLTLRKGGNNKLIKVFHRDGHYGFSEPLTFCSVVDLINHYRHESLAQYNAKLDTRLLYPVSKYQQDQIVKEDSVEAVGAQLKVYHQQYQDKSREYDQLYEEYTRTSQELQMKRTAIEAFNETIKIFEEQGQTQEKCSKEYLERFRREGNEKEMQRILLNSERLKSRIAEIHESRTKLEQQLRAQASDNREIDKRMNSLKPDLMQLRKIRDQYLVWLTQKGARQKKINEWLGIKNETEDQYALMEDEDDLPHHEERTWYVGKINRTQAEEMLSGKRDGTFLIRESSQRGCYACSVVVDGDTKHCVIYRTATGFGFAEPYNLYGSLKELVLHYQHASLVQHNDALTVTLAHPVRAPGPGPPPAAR
UniProt P28328: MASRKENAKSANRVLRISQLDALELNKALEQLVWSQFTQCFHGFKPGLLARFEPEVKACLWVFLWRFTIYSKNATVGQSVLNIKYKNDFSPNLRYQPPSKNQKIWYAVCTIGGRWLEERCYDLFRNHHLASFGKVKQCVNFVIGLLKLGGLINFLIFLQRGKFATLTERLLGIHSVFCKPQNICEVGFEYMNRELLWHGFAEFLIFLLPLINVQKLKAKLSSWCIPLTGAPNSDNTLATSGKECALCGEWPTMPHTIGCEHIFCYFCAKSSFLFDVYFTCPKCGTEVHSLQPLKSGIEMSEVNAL
UniProt Q99570, whole entry, looked up: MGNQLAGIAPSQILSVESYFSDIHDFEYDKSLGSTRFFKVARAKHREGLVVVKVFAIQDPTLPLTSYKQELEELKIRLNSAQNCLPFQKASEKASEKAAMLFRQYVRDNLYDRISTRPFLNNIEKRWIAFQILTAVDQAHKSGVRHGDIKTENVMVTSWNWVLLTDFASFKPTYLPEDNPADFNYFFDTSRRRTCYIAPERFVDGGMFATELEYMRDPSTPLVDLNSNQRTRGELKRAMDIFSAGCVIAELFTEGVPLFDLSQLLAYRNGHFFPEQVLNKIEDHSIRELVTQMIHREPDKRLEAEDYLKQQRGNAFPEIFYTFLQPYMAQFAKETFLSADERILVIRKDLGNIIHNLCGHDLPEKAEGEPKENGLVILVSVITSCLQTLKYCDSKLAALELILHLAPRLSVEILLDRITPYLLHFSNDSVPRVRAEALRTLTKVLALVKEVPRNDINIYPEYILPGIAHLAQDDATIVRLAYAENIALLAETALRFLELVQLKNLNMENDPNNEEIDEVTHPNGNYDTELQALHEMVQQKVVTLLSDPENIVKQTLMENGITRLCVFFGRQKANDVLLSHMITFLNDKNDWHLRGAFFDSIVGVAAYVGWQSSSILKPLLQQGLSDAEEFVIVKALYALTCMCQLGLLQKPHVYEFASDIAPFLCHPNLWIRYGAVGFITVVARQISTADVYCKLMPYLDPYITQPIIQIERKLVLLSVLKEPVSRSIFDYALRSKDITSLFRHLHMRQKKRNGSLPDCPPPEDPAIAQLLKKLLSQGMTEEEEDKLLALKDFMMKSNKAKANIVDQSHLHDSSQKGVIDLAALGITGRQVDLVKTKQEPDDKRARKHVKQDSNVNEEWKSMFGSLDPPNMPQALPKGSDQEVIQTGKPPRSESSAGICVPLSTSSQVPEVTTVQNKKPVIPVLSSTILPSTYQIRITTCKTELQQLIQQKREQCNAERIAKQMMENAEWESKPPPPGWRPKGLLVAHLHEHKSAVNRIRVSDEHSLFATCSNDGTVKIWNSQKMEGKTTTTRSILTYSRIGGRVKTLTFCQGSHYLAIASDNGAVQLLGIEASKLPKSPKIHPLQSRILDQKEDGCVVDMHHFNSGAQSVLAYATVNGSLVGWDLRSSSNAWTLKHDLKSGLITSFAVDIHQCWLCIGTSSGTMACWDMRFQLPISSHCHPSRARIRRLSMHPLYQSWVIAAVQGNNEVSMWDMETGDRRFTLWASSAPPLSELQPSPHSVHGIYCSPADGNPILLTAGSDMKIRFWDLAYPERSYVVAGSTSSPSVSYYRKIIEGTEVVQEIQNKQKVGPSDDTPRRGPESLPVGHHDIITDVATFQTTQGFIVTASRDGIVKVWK
UniProt Q6PCE3: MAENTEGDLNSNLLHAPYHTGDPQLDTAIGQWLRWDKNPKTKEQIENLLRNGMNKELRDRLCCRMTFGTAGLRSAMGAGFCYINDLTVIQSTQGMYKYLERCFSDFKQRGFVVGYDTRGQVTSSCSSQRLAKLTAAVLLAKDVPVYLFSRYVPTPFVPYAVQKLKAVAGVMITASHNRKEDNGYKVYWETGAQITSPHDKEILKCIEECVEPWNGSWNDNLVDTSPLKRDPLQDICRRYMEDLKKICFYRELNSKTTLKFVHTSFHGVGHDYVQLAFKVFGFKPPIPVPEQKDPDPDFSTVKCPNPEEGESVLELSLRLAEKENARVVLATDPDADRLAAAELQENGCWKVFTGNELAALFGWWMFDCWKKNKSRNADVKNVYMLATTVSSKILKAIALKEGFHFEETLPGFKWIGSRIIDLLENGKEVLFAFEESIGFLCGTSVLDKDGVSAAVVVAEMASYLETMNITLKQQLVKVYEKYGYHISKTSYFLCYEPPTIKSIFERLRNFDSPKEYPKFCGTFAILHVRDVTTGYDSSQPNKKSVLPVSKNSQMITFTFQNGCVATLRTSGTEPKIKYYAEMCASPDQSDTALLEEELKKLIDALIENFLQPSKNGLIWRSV
UniProt P40855: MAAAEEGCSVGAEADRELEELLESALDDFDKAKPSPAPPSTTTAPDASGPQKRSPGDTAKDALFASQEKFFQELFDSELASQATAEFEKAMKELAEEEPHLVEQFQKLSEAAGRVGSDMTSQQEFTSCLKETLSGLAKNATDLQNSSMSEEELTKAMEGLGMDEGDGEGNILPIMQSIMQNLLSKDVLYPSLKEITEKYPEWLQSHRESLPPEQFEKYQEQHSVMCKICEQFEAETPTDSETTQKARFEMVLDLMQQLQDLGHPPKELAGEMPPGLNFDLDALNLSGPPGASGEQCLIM
UniProt Q32NB8: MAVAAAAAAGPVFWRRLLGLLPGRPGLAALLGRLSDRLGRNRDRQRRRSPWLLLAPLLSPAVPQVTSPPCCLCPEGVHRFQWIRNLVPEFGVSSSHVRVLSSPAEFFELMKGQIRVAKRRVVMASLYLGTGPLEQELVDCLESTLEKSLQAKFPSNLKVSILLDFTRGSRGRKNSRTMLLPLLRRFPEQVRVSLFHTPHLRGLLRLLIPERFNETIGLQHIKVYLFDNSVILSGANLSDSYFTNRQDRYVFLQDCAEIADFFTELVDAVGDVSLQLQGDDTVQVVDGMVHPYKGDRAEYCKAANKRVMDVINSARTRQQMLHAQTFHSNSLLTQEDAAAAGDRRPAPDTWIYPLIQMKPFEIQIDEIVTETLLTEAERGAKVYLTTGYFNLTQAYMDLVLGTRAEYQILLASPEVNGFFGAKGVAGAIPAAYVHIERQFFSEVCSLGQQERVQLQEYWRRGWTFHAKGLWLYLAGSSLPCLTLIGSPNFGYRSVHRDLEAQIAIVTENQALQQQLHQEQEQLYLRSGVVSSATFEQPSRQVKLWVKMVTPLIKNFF
UniProt Q9GZP4: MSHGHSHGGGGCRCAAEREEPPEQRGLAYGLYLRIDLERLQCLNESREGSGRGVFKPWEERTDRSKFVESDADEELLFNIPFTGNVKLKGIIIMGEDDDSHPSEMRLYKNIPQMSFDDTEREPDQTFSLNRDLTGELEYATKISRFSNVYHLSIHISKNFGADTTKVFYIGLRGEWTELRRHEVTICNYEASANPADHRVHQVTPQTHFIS

[2] = compound: CC[C@@H]1C(=O)N(C)c2cnc(Nc3ccc(C(=O)N[C@H]4CC[C@H](N5CCN(CC6CC6)CC5)CC4)cc3OC)nc2N1C(C)C [volasertib]
Summary of the method: as §1

[3] = compound: CC[C@H](C)N1C=C(C2=C(C=C(C=C21)C3=CN=C(C=C3)N4CCNCC4)C(=O)NCC5=C(C=C(NC5=O)C)C)C
Summary of the method: as §1

[4] = compound: CC[C@H](C)[C@@H](C(=O)N[C@@H]([C@@H](C)O)C(=O)N[C@@H](CC(C)C)C(=O)[C@]1(CO1)C)NC(=O)[C@H]([C@@H](C)CC)N(C)C(=O)C [epoxomicin]
Summary of the method: as §1

[5] = compound: CCn1c(C(=O)N(C2CC2)C2CC2)cc2c3c(ncn3C)c(Nc3cc(C)n(C)n3)nc21
Summary of the method: as §1

[6] = compound: CCn1cc(-c2ccnc3[nH]c(-c4cccc(CN(C)C)c4)cc23)c(-c2ccc(NC(=O)N(C)C)cc2)n1
Summary of the method: as §1

[7] = compound: CN(C)CC(=O)Nc1ccc2[nH]c(=O)c3ccccc3c2c1
Summary of the method: as §1

[8] = compound: CN(CCOC1=CC=C(C=C1)C[C@H]2C(=O)NC(=O)S2)C3=CC=CC=N3 (racemic) [rosiglitazone]
Summary of the method: as §1

[9] = compound: CN1C2=C(C3=C1C(=O)N(N=C3)CC4=CC(=CC=C4)N)SC(=C2)S(=O)C
Summary of the method: as §1

[10] = compound: CN1CCC(CNc2ccc3ncc(-c4cccc(OC(F)(F)F)c4)n3n2)CC1
Summary of the method: as §1

Measured: log2 fold change

PICALM (UniProt Q13492)
inactive: [1] -0.007 | [2] -0.043 | [3] 0.008 | [4] 0.035 | [5] -0.008 | [6] 0.012 | [7] 0.036 | [8] 0.01 | [9] -0.046 | [10] -0.032

PFDN5 (UniProt Q99471)
inactive: [1] 0.06 | [2] 0.007 | [3] -0.012 | [4] 0.158 | [5] 0.015 | [6] -0.06 | [7] 0.023 | [8] -0.018 | [9] -0.112 | [10] 0.285

PIP (UniProt P12273)
inactive: [1] -0.314 | [2] -0.305 | [3] 0.527 | [4] 0.924 | [5] 0.111 | [6] 0.124 | [7] 0.241 | [8] 0.23 | [9] 0.497 | [10] -0.079

PFKFB4 (UniProt Q16877)
inactive: [1] 0.053 | [2] -0.098 | [3] 0.081 | [4] -0.036 | [5] -0.026 | [6] 0.015 | [7] 0.016 | [8] 0.039 | [9] -0.04 | [10] 0.008

PGK1 (UniProt P00558)
inactive: [1] -0.01 | [2] 0.132 | [3] 0.015 | [4] 0.04 | [5] 0.025 | [6] -0.03 | [7] -0.007 | [8] 0.023 | [9] -0.119 | [10] 0.01

PFKFB3 isoform 4 (UniProt Q16875)
inactive: [1] -0.043 | [2] -0.114 | [3] 0.02 | [4] 0.088 | [5] 0.012 | [6] -0.01 | [7] 0.034 | [8] -0.045 | [9] -0.122 | [10] -0.115

PGAM4 (UniProt Q8N0Y7)
inactive: [1] 0.019 | [2] 0.11 | [3] -0.051 | [4] -0.026 | [5] 0.008 | [6] 0.012 | [7] 0.004 | [8] 0.015 | [9] -0.027 | [10] -0.03

PIH1D1 (UniProt Q9NWS0)
inactive: [1] 0.05 | [2] -0.007 | [3] -0.015 | [4] 0.026 | [5] -0.021 | [6] -0.032 | [7] 0.085 | [8] 0.036 | [9] -0.025 | [10] -0.003

PHB2 (UniProt Q99623)
inactive: [1] -0.005 | [2] 0.059 | [3] -0.035 | [4] 0.012 | [5] 0.041 | [6] 0.031 | [7] -0.032 | [8] -0.001 | [9] -0.038 | [10] 0.046

PGM2 (UniProt Q96G03)
inactive: [1] 0.033 | [2] 0.061 | [3] -0.041 | [4] 0 | [5] 0.011 | [6] -0.011 | [7] 0 | [8] 0.01 | [9] -0.046 | [10] -0.004

PHB (UniProt P35232)
inactive: [1] 0.012 | [2] 0.094 | [3] -0.057 | [4] 0.004 | [5] 0.012 | [6] 0.016 | [7] -0.024 | [8] -0.003 | [9] 0.003 | [10] 0.03

PIGW (UniProt Q7Z7B1)
inactive: [1] -0.05 | [2] -0.023 | [3] 0.038 | [4] 0.033 | [5] -0.032 | [6] -0.117 | [7] 0.06 | [8] 0.014 | [9] -0.083 | [10] -0.203

PIN4 isoform 2 (UniProt Q9Y237)
inactive: [1] -0.039 | [2] 0.006 | [3] 0.005 | [4] -0.01 | [5] 0.028 | [6] 0.03 | [7] 0.012 | [8] 0.065 | [9] -0.012 | [10] -0.056

PIK3R2 (UniProt O00459)
inactive: [1] 0.07 | [2] -0.188 | [3] 0 | [4] -0.029 | [5] -0.039 | [6] -0.003 | [7] 0.052 | [8] 0.058 | [9] -0.002 | [10] 0.128

Copied from the results shown (6 entries):
PGK1 (UniProt P00558)
inactive: [1] -0.01 | [2] 0.132 | [3] 0.015 | [4] 0.04 | [5] 0.025 | [6] -0.03 | [7] -0.007 | [8] 0.023 | [9] -0.119 | [10] 0.01

PFKFB3 isoform 4 (UniProt Q16875)
inactive: [1] -0.043 | [2] -0.114 | [3] 0.02 | [4] 0.088 | [5] 0.012 | [6] -0.01 | [7] 0.034 | [8] -0.045 | [9] -0.122 | [10] -0.115

PGAM4 (UniProt Q8N0Y7)
inactive: [1] 0.019 | [2] 0.11 | [3] -0.051 | [4] -0.026 | [5] 0.008 | [6] 0.012 | [7] 0.004 | [8] 0.015 | [9] -0.027 | [10] -0.03

PIH1D1 (UniProt Q9NWS0)
inactive: [1] 0.05 | [2] -0.007 | [3] -0.015 | [4] 0.026 | [5] -0.021 | [6] -0.032 | [7] 0.085 | [8] 0.036 | [9] -0.025 | [10] -0.003

PHB2 (UniProt Q99623)
inactive: [1] -0.005 | [2] 0.059 | [3] -0.035 | [4] 0.012 | [5] 0.041 | [6] 0.031 | [7] -0.032 | [8] -0.001 | [9] -0.038 | [10] 0.046

PGM2 (UniProt Q96G03)
inactive: [1] 0.033 | [2] 0.061 | [3] -0.041 | [4] 0 | [5] 0.011 | [6] -0.011 | [7] 0 | [8] 0.01 | [9] -0.046 | [10] -0.004

Additional entries follow:

PEX2 (UniProt P28328)
inactive: [1] 0.161 | [2] 0.066 | [3] 0.063 | [4] 0.02 | [5] 0.01 | [6] 0.054 | [7] 0.023 | [8] 0.086 | [9] -0.123 | [10] -0.105

PIK3R4 (UniProt Q99570)
inactive: [1] 0.056 | [2] 0.005 | [3] 0.022 | [4] -0.02 | [5] 0.085 | [6] -0.038 | [7] -0.007 | [8] 0.029 | [9] -0.052 | [10] 0.042

PLAA (UniProt Q9Y263)
inactive: [1] -0.013 | [2] -0.149 | [3] 0.06 | [4] 0.103 | [5] -0.031 | [6] -0.046 | [7] 0.068 | [8] 0.036 | [9] -0.064 | [10] -0.043

PHF19 isoform 2 (UniProt Q5T6S3)
inactive: [1] -0.092 | [2] -0.267 | [3] 0.036 | [4] 0.188 | [5] -0.012 | [6] -0.011 | [7] 0.07 | [8] 0.061 | [9] -0.043 | [10] -0.011

PITPNB isoform 3 (UniProt P48739)
inactive: [1] 0.072 | [2] 0.072 | [3] -0.002 | [4] 0.027 | [5] -0.005 | [6] -0.026 | [7] 0.015 | [8] 0.01 | [9] -0.083 | [10] 0.023

PGM2L1 (UniProt Q6PCE3)
inactive: [1] 0.002 | [2] -0.014 | [3] -0.032 | [4] -0.006 | [5] 0.053 | [6] -0.017 | [7] -0.094 | [8] 0.004 | [9] -0.036 | [10] -0.086

PEX6 (UniProt Q13608)
inactive: [1] -0.05 | [2] 0.004 | [3] -0.003 | [4] -0.012 | [5] -0.03 | [6] -0.049 | [7] 0.054 | [8] 0.007 | [9] -0.011 | [10] -0.043

PEX19 (UniProt P40855)
inactive: [1] 0.014 | [2] 0.012 | [3] -0.045 | [4] 0.023 | [5] -0.001 | [6] 0.05 | [7] 0.005 | [8] 0 | [9] -0.037 | [10] 0.027

PHACTR4 isoform 2 (UniProt Q8IZ21)
inactive: [1] 0.039 | [2] 0.068 | [3] 0.014 | [4] 0.016 | [5] 0.001 | [6] -0.033 | [7] -0.025 | [8] -0.004 | [9] -0.043 | [10] -0.143

PLD1 (UniProt Q13393)
inactive: [1] 0.036 | [2] 0.136 | [3] -0.064 | [4] 0.028 | [5] 0.094 | [6] -0.029 | [7] -0.065 | [8] -0.266 | [9] 0.161 | [10] -0.139

PIGA (UniProt P37287)
inactive: [1] 0.044 | [2] -0.014 | [3] -0.029 | [4] 0.04 | [5] -0.005 | [6] 0.166 | [7] -0.02 | [8] 0.054 | [9] -0.044 | [10] 0.19

PGS1 (UniProt Q32NB8)
inactive: [1] -0.048 | [2] -0.032 | [3] 0.032 | [4] 0.089 | [5] 0.045 | [6] -0.246 | [7] 0.002 | [8] -0.027 | [9] -0.017 | [10] 0.05

PI4KA (UniProt P42356)
inactive: [1] 0.082 | [2] -0.173 | [3] -0.019 | [4] -0.072 | [5] -0.078 | [6] -0.024 | [7] -0.028 | [8] 0.015 | [9] 0.123 | [10] 0.179

PITHD1 (UniProt Q9GZP4)
inactive: [1] -0.024 | [2] 0.029 | [3] 0.033 | [4] 0.012 | [5] 0.025 | [6] 0.011 | [7] -0.046 | [8] -0.067 | [9] -0.039 | [10] -0.061

PGAM1 (UniProt P18669)
inactive: [1] -0.02 | [2] 0.051 | [3] -0.016 | [4] 0.024 | [5] 0.013 | [6] -0.004 | [7] -0.002 | [8] 0.013 | [9] -0.064 | [10] -0.001

— the supplement of paper PMC10849652
